Source: the supplement of paper PMC3334620
The full ranking holds about 33,000 sequences; the median of “E-score (-0.5 to 0.5)” is about -0.0034, and the highest 2% start at about 0.25. The list shows a part of the results.

The sequences below were run against T1, Yap3 (UniProt P38749) (assay: PBM E-score (8-mer binding enrichment) (E-score (-0.5 to 0.5)); higher = stronger / more preferred TF binding). Settings: protein concentration: 100 nM; construct: GST-full length.
T1 sequence: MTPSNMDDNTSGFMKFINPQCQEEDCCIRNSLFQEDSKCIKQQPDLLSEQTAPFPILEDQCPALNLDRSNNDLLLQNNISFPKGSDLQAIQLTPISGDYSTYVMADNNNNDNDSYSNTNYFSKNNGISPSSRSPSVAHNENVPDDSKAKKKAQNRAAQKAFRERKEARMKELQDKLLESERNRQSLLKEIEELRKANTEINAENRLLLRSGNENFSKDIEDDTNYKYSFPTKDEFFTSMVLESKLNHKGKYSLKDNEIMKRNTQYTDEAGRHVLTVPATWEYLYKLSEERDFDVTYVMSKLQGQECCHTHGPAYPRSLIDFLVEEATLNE
Protocol: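 Universal 'all 10-mer' protein binding microarrays (Agilent AMADID 015681) probed with GST-tagged S. cerevisiae TFs (full-length or DBD) made by in vitro transcription/translation (PURExpress), about 100-200 nM. Bound TF was detected with fluorescent anti-GST. Each ungapped 8-mer (which stands for itself and its reverse complement) is scored by the PBM enrichment score (E-score), a modified Wilcoxon-Mann-Whitney statistic from -0.5 to +0.5, computed with the Universal PBM Analysis Suite. Scale: above 0.35 generally sequence-specific binding.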
In the case of AGCAGGGA, the “PBM E-score” value is reported as -0.0854. CTCCACAG was tested, and the “PBM E-score” value was -0.213. In the case of CGCGATGA, the “PBM E-score” value is reported as 0.197. In the case of AATGTCTG, the “PBM E-score” value is reported as 0.0935. With AATCGAGG the “PBM E-score” value was 0.109. With TCCCGTCA the “PBM E-score” value was -0.0924. With TAAAACGA the “PBM E-score” value was 0.0385. For CAAGTGAG, the “PBM E-score” value was -0.0145. With AATAGAGT the “PBM E-score” value was -0.0885. With CAATGTAA the “PBM E-score” value was 0.113. ATGTACCC was tested, and the “PBM E-score” value was 0.0217. ACAACCAG was tested, and the “PBM E-score” value was 0.0808. In the case of AAACATCC, the “PBM E-score” value is reported as 0.0448. For CTACACGA, the “PBM E-score” value was -0.0099. AACATGAG was tested, and the “PBM E-score” value was -0.0586. ATGGCAAA was tested, and the “PBM E-score” value was 0.0267. In the case of CACACACA, the “PBM E-score” value is reported as 0.0351. In the case of AGGCACAT, the “PBM E-score” value is reported as 0.0848. AATGTATC was tested, and the “PBM E-score” value was 0.211. For AGAAGAAC, the “PBM E-score” value was 0.0205. CGCATGAA was tested, and the “PBM E-score” value was 0.111. For CCCATCCC, the “PBM E-score” value was -0.262. In the case of CCTGCGAA, the “PBM E-score” value is reported as -0.112. For GCGTCGAA, the “PBM E-score” value was -0.00921. CAGCAGAA was tested, and the “PBM E-score” value was -0.088. With CTAACTAG the “PBM E-score” value was 0.0903. TAATCGGA was tested, and the “PBM E-score” value was 0.103. For ATCCTCGA, the “PBM E-score” value was 0.0763. For CTCACAAC, the “PBM E-score” value was 0.191. For CGTTAAGA, the “PBM E-score” value was -0.0915. AGTCACAT was tested, and the “PBM E-score” value was -0.00331. TGTGGTAA was tested, and the “PBM E-score” value was 0.0974. In the case of ATGGTCAC, the “PBM E-score” value is reported as 0.00352. With CGCGAGAG the “PBM E-score” value was -0.0457. For ACGGAAAA, the “PBM E-score” value was 0.107. With AACCGGAC the “PBM E-score” value was -0.0376. With ATAGAGGA the “PBM E-score” value was -0.186. In the case of ACCTCTCG, the “PBM E-score” value is reported as -0.0197. For AGGCAGTG, the “PBM E-score” value was 0.0597. For ATGTAGCG, the “PBM E-score” value was 0.0114. For AATGGATC, the “PBM E-score” value was 0.0638. For ACCTCAGA, the “PBM E-score” value was -0.0947. In the case of GAGATAAA, the “PBM E-score” value is reported as 0.185. AGGCCGCC was tested, and the “PBM E-score” value was -0.145. ACCGGCCA was tested, and the “PBM E-score” value was -0.3. With GAGATCCC the “PBM E-score” value was -0.0512. In the case of TGCTTCAA, the “PBM E-score” value is reported as 0.07. With ACATTCCA the “PBM E-score” value was -0.0217. TCTATGAA was tested, and the “PBM E-score” value was 0.0947. In the case of CCAAAACA, the “PBM E-score” value is reported as -0.0255. CCACAGAG was tested, and the “PBM E-score” value was -0.167. In the case of ATCCCAGA, the “PBM E-score” value is reported as -0.188. In the case of ACCTGCCA, the “PBM E-score” value is reported as -0.108. In the case of GGCTGCAA, the “PBM E-score” value is reported as -0.193. With GCTGATCC the “PBM E-score” value was 0.0129. In the case of ACCTGAAC, the “PBM E-score” value is reported as -0.119. With AGTCCATG the “PBM E-score” value was -0.197. In the case of CGGTACAA, the “PBM E-score” value is reported as 0.104. In the case of AAAATATC, the “PBM E-score” value is reported as 0.257. For AGAATAAC, the “PBM E-score” value was 0.0505. With CGTTCTAA the “PBM E-score” value was 0.0111. For AAGATGGG, the “PBM E-score” value was -0.0453. CAACCACC was tested, and the “PBM E-score” value was -0.0839. For GGCTCCCA, the “PBM E-score” value was -0.308. For ATTGCCGC, the “PBM E-score” value was 0.0374. For ATGGAGGG, the “PBM E-score” value was -0.287. In the case of GCCGTCGA, the “PBM E-score” value is reported as 0.0529. For TCACCCAA, the “PBM E-score” value was 0.15. For AAACAACG, the “PBM E-score” value was 0.158. AGGCCTTG was tested, and the “PBM E-score” value was -0.279. For GTGGATAA, the “PBM E-score” value was 0.024. In the case of GAGGTCGA, the “PBM E-score” value is reported as -0.0132. AGAAGCCT was tested, and the “PBM E-score” value was 0.0664. AGGCTGGC was tested, and the “PBM E-score” value was -0.246. CGGTAGAG was tested, and the “PBM E-score” value was -0.106. For CGGCCCGC, the “PBM E-score” value was -0.195. For AGCGAAAC, the “PBM E-score” value was 0.204. In the case of ACACTCTC, the “PBM E-score” value is reported as 0.195. For CGCCAACC, the “PBM E-score” value was -0.193. For GGTAGAAA, the “PBM E-score” value was 0.0804. With GCATCTCC the “PBM E-score” value was -0.107. In the case of AGATATAT, the “PBM E-score” value is reported as 0.191. CTTTTTCC was tested, and the “PBM E-score” value was 0.0994. CCGCCACA was tested, and the “PBM E-score” value was -0.126. In the case of AACAACCT, the “PBM E-score” value is reported as 0.0212. For AACACGTC, the “PBM E-score” value was 0.0248. With AGGGTATC the “PBM E-score” value was -0.059. In the case of CAAGTTAG, the “PBM E-score” value is reported as 0.0507. CTCTAAAA was tested, and the “PBM E-score” value was -0.072. CACGCAGC was tested, and the “PBM E-score” value was -0.243. ATAGATCG was tested, and the “PBM E-score” value was -0.0482. AATACTTG was tested, and the “PBM E-score” value was 0.114. With AGTACGTC the “PBM E-score” value was 0.0778. In the case of AAGATTTA, the “PBM E-score” value is reported as 0.0921. With CGCCTAAA the “PBM E-score” value was -0.064. In the case of AGGTCAGC, the “PBM E-score” value is reported as -0.0793. CCCATGCG was tested, and the “PBM E-score” value was -0.134. With TATATCAA the “PBM E-score” value was 0.237. For GCAGCTAC, the “PBM E-score” value was -0.0551. For AATATCGC, the “PBM E-score” value was 0.14. For CGCGATTA, the “PBM E-score” value was 0.27. For CCCAAACA, the “PBM E-score” value was 0.137. In the case of AGTGACCC, the “PBM E-score” value is reported as -0.0843. In the case of ATTGATCA, the “PBM E-score” value is reported as 0.0737. For GATTTCGC, the “PBM E-score” value was 0.219. In the case of GAGTTTCA, the “PBM E-score” value is reported as -0.0528. CCACGCGC was tested, and the “PBM E-score” value was -0.148. For CCGTTGTA, the “PBM E-score” value was 0.148. GCGTGTAC was tested, and the “PBM E-score” value was -0.16. With CATAGTTA the “PBM E-score” value was 0.0154. With ACTTCGCT the “PBM E-score” value was -0.0063. In the case of ATAAGCTC, the “PBM E-score” value is reported as 0.0274. For CGAAACCC, the “PBM E-score” value was 0.0581. With ACACGCTG the “PBM E-score” value was 0.0177. For CCAGCTGC, the “PBM E-score” value was -0.236. With GATTTGAC the “PBM E-score” value was 0.0257. For AATCTATG, the “PBM E-score” value was 0.161. AGCGTGGC was tested, and the “PBM E-score” value was -0.157. In the case of CTGTCGGC, the “PBM E-score” value is reported as -0.123. GAGGACAA was tested, and the “PBM E-score” value was 0.0335. CGGAGGTC was tested, and the “PBM E-score” value was -0.158. In the case of CAATTTGA, the “PBM E-score” value is reported as 0.0883. TACAACGA was tested, and the “PBM E-score” value was 0.122. For ATAGCCCA, the “PBM E-score” value was 0.0521. In the case of CCCCGCGA, the “PBM E-score” value is reported as -0.12. CCCTGACA was tested, and the “PBM E-score” value was -0.11. In the case of ACTTGCCC, the “PBM E-score” value is reported as -0.138. For AGTAGTAG, the “PBM E-score” value was -0.00727. In the case of CCTTACAA, the “PBM E-score” value is reported as -0.0411. With AATATACT the “PBM E-score” value was 0.205. For AAGGATTC, the “PBM E-score” value was -0.129. CAAACTAA was tested, and the “PBM E-score” value was 0.25. For GCTCAGCC, the “PBM E-score” value was -0.255. With GGGACCAA the “PBM E-score” value was -0.0553. For CGATCCCG, the “PBM E-score” value was -0.207. TATGGTGA was tested, and the “PBM E-score” value was 0.0221. With CTCCGCCA the “PBM E-score” value was -0.224. With GAGGGGCC the “PBM E-score” value was -0.323. In the case of CGTATTGC, the “PBM E-score” value is reported as 0.06. For ACGTTGGC, the “PBM E-score” value was -0.0773. For GACCATAC, the “PBM E-score” value was -0.0526. For GGCGACCC, the “PBM E-score” value was -0.304. With GGGGTTAC the “PBM E-score” value was -0.233. For CTTGGACC, the “PBM E-score” value was -0.314. For CGGGAATA, the “PBM E-score” value was 0.196. With AGCAGAAC the “PBM E-score” value was -0.0354. For CTAGCACC, the “PBM E-score” value was -0.00721. ACCTTCCC was tested, and the “PBM E-score” value was -0.0325. In the case of CGCTGACC, the “PBM E-score” value is reported as -0.0253. In the case of AGTTAAGA, the “PBM E-score” value is reported as 0.0921. GACTGGTA was tested, and the “PBM E-score” value was 0.00201. In the case of AGCACTTG, the “PBM E-score” value is reported as -0.241. For AAACGCAG, the “PBM E-score” value was 0.0596. For AAGTTCAG, the “PBM E-score” value was -0.053. AAGTTGGT was tested, and the “PBM E-score” value was 0.234. With ACAATCCC the “PBM E-score” value was 0.0359. With GCGCGCAA the “PBM E-score” value was 0.164. With CTACTATA the “PBM E-score” value was 0.14. With ACAAGGAA the “PBM E-score” value was 0.141. With CAAGTGTA the “PBM E-score” value was 0.0709. With AGCATGCG the “PBM E-score” value was -0.0917. For CCGGTCTC, the “PBM E-score” value was -0.215. With ACTAGAGA the “PBM E-score” value was -0.0996. CTATGTGC was tested, and the “PBM E-score” value was -0.0493. AGTCGTGA was tested, and the “PBM E-score” value was 0.0306. With CGGGCGAC the “PBM E-score” value was -0.245. In the case of GTACCGGA, the “PBM E-score” value is reported as 0.0353. CCGGGATA was tested, and the “PBM E-score” value was 0.0635. In the case of CGCCGTCC, the “PBM E-score” value is reported as -0.201. For GGGGGTTA, the “PBM E-score” value was -0.34. With AGTACTCA the “PBM E-score” value was 0.0416. In the case of GGTCCTCA, the “PBM E-score” value is reported as -0.0789.
